Test results: article PMC12402101
These are yes or no findings as the source states them, for the method shown. Some binding calls cover weakened binding; strength is not graded here.

Target: …ON …3 (VIN3) fused to SYFP2 (Arabidopsis thaliana) (UniProt Q9FIE3)
Assay: single-molecule tracking with stepwise photobleaching (SlimVar microscopy); single colour, in nuclei of live Arabidopsis root tips at working depths of 20 ± 10 µm; stoichiometry = initial track intensity divided by characteristic molecular brightness; periodicity = most common interval between neighbouring peaks of the stoichiometry distribution; 20 ms exposure (VIN3-GFP, VRN5-YFP) or 10 ms (VIN3-SYFP2); timepoints NV, V2W, V6W, V6W+T14 of vernalisation

binding: binds
Substance: …ON …3 (VIN3) fused to SYFP2 (from UniProt Q9FIE3 1-620)
